# Measured values published in PMC12811313.
# Chains of the proteins cited; added tags and fusions are not shown. Lines headed by an entry give the natural chain unless they say otherwise; changes in a name come on top.
# UniProt P19474: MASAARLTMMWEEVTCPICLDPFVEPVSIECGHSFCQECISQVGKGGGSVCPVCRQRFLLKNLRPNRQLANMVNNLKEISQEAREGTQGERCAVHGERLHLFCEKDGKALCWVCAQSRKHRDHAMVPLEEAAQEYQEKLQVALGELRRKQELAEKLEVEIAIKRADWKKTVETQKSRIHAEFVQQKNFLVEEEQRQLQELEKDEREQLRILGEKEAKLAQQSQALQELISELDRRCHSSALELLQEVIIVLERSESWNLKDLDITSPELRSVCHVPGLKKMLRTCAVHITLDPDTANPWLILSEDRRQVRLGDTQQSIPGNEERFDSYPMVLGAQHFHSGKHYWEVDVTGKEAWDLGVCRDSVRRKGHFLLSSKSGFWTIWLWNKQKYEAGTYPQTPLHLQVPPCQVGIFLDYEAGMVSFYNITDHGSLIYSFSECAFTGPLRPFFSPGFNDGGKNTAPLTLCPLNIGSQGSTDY
# No constants are given. Whether binding was seen depends on the method and setting. Binding seen in cells or lysates may run through a third protein. Some results given as binding are weak or reduced against the parent protein; the word gives no strength.
# Assays:
# [1] = biological target: T1, Synaptosomal-associated protein 23 (SNAP23) (human (endogenous in SW620 and HT29)) (UniProt O00161); assay: co-IP; endogenous proteins in RIPA lysates of SW620 and HT29 cells; antibody overnight at 4 °C, protein A+G agarose 1 h at room temperature; also in control, SNAP23-knockdown and SNAP23-restored cells
# T1 sequence: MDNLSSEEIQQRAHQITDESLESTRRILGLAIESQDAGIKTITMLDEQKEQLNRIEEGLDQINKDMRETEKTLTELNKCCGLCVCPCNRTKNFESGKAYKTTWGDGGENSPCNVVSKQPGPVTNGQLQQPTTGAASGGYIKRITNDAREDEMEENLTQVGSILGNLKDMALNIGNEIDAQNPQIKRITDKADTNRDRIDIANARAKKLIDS
# [2] = biological target: T2, mitochondrial transcription factor A (TFAM) (human (endogenous in SW620 and HT29)) (UniProt Q00059); assay: as above
# T2 sequence: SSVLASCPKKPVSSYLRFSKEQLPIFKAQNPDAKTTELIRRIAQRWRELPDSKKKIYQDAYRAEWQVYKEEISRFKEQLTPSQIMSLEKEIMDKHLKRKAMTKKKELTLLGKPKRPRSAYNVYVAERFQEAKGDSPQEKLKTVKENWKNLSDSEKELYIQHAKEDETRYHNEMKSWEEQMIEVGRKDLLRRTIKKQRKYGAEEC
# [3] = biological target: T1, Synaptosomal-associated protein 23 (SNAP23) (human (endogenous in SW620 and HT29)); assay: co-IP; mitochondrial and cytoplasmic fractions isolated from control (shNT) and SNAP23-knockdown SW620 cells pretreated with MG132; immunoprecipitation from each fraction, blots for SNAP23, Trim21 and TFAM
# [4] = biological target: T2, mitochondrial transcription factor A (TFAM) (human (endogenous in SW620 and HT29)); assay: as above
# [5] = biological target: T3, SNAP23 (in HEK293T cells) (UniProt O00161); assay: co-IP; lysates of HEK293T cells expressing Trim21 deletion mutants
# T3 sequence: T1 sequence
# TFAM (in HEK293T cells) = biological target: T4, TFAM (in HEK293T cells) (UniProt Q00059); assay: as above
# T4 sequence: T2 sequence
binding [1],binding [2],binding [3],binding [4],binding [5],binding (TFAM (in HEK293T cells)),Substance
binds,binds,binds,binds,,,E3 ubiquitin ligase Trim21 (from UniProt P19474 1-475)
,,,,binds,binds,TRIM21 (△1–81aa) (from UniProt P19474 82-475) (domain or fragment)
,,,,binds,binds,TRIM21 (△1–128aa) (from UniProt P19474 129-475) (domain or fragment)
,,,,binds,binds,TRIM21 (△1–268aa) (from UniProt P19474 269-475) (domain or fragment)
